Experimental data: PubChem BioAssay AID1224828 (NIAID, 2016)
Shown is one part, drawn at random, of about 17,000 deposited reagents. 762 of them (4.5%) were called active. 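Active calls include both raised and lowered p65 entry, mostly lowered; wells with fewer than 50 cells lack a z-score.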 Raw values are not corrected between plates.

Assay: 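Knock-downs that increase or decrease LPS-induced p65 nuclear translocation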 (primary screen)
System: mouse RAW264.7 G9 macrophage reporter cells (GFP-p65, Tnf promoter-mCherry)
Reagent: siRNA pool against mouse genes, 100 nM
Time to read-out: 2 days siRNA transfection, then 40 min LPS before fixation
Treatment: LPS (Salmonella minnesota R595) at 10 ng/ml
Detection: 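Microscopy ratio of nuclear to perinuclear-ring GFP-p65 signal, scaled to the plate median; gene score is the average of two replicate robust z-scores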
Reading the numbers: p65 translocation robust z-score: higher = more nuclear NF-kappaB p65 after LPS than the plate median; nuclear/cytoplasmic p65 ratio: higher = more nuclear NF-kappaB p65
Hit rule: 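Active if robust z is above 3.3 (negative regulators) or below -1.56, the Tlr4 control median (positive regulators); activity score 50 or more; control wells not called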
Meaning of the calls: active = hit (p65 shift raised or lowered); inactive = no clear change

gene	p65 translocation robust z-score	nuclear/cytoplasmic p65 ratio, rep 1	nuclear/cytoplasmic p65 ratio, rep 2	low cell count flag	Call
Or5b124 (olfactory receptor family 5 subfamily B member 124)	-0.64	1.31	1.51	enough cells to score	inactive
Plekha8 (pleckstrin homology domain containing A8)		1.3	1.46	fewer than 50 cells per well; well left out of scoring	inactive
Ern1 (endoplasmic reticulum to nucleus signalling 1)		1.68	1.26	fewer than 50 cells per well; well left out of scoring	inactive
Foxq1 (forkhead box Q1)	0.72	1.66	1.59	enough cells to score	inactive
Golga3 (golgin A3)	-1.07	1.5	1.37	enough cells to score	inactive
Ppp1r3c (protein phosphatase 1, regulatory subunit 3C)	1.01	1.67	1.51	enough cells to score	inactive
Brd7 (bromodomain containing 7)	0.05	1.65	1.6	enough cells to score	inactive
Wrap53 (WD repeat containing, antisense to Trp53)	-1.17	1.44	1.61	enough cells to score	inactive
Or6c75 (olfactory receptor family 6 subfamily C member 75)		1.67	1.1	fewer than 50 cells per well; well left out of scoring	inactive
Gabarapl1 (GABA type A receptor associated protein like 1)	0.53	1.47	1.47	enough cells to score	inactive
Scgb1b2 (secretoglobin, family 1B, member 2)	0.3	1.73	1.61	enough cells to score	inactive
Eif3c (eukaryotic translation initiation factor 3, subunit C)	0.17	1.64	1.64	enough cells to score	inactive
Dlx3 (distal-less homeobox 3)	-2.12	1.2	1.18	enough cells to score	active
Cbln4 (cerebellin 4 precursor protein)	0.4	1.67	1.83	enough cells to score	inactive
Actn4 (actinin alpha 4)	0.27	1.62	1.7	enough cells to score	inactive
Rasgrp3 (RAS, guanyl releasing protein 3)	0.03	1.49	1.33	enough cells to score	inactive
Uckl1 (uridine-cytidine kinase 1-like 1)		1.57	1.43	fewer than 50 cells per well; well left out of scoring	inactive
Sarm1 (sterile alpha and HEAT/Armadillo motif containing 1)	1.12	1.56	1.64	enough cells to score	inactive
Slc12a4	-0.08	1.38	1.26	enough cells to score	inactive
Sgpp1 (sphingosine-1-phosphate phosphatase 1)	-0.29	1.58	1.44	enough cells to score	inactive
Ppp5c (protein phosphatase 5, catalytic subunit)	-1.37	1.35	1.19	enough cells to score	inactive
Trmt2b (TRM2 tRNA methyltransferase 2B)		1.16	1.27	fewer than 50 cells per well; well left out of scoring	inactive
Tgm3 (transglutaminase 3, E polypeptide)		1.55	1.4	fewer than 50 cells per well; well left out of scoring	inactive

Just “low cell count flag” (3 entries from above):
Or6c75 (olfactory receptor family 6 subfamily C member 75): fewer than 50 cells per well; well left out of scoring
Gabarapl1 (GABA type A receptor associated protein like 1): enough cells to score
Scgb1b2 (secretoglobin, family 1B, member 2): enough cells to score

The results go on.
gene	p65 translocation robust z-score	nuclear/cytoplasmic p65 ratio, rep 1	nuclear/cytoplasmic p65 ratio, rep 2	low cell count flag	Call
Srek1ip1	-1.02	1.16	1.2	enough cells to score	inactive
Smc4 (structural maintenance of chromosomes 4)	0.55	1.65	1.62	enough cells to score	inactive
Ints13 (integrator complex subunit 13)	1.54	1.41	1.82	enough cells to score	inactive
Acer1 (alkaline ceramidase 1)	-0.44	1.52	1.46	enough cells to score	inactive
1810024B03Rik (RIKEN cDNA 1810024B03 gene)		1.47	1.4	fewer than 50 cells per well; well left out of scoring	inactive
Atp6v0e (ATPase, H+ transporting, lysosomal V0 subunit E)	-1.12	1.27	1.52	enough cells to score	inactive
Rims1 (regulating synaptic membrane exocytosis 1)	1.29	1.57	1.74	enough cells to score	inactive
Rgr (retinal G protein coupled receptor)	0.88	1.61	1.74	enough cells to score	inactive
Prl8a9 (prolactin family8, subfamily a, member 9)	1.6	1.61	1.38	enough cells to score	inactive
Eif4ebp3	-0.1	1.28	1.51	enough cells to score	inactive
Dnd1 (DND microRNA-mediated repression inhibitor 1)	1.81	1.69	1.61	enough cells to score	inactive
D030056L22Rik (RIKEN cDNA D030056L22 gene)	0.62	1.64	1.91	enough cells to score	inactive
Pou2f3 (POU domain, class 2, transcription factor 3)	-0.58	1.47	1.29	enough cells to score	inactive
Serpinb1b (serine (or cysteine) peptidase inhibitor, clade B, member 1b)	-0.41	1.35	1.22	enough cells to score	inactive
Cnot3 (CCR4-NOT transcription complex, subunit 3)	2.64	1.85	1.7	enough cells to score	inactive
Cox8b (cytochrome c oxidase subunit 8B)	-0.43	1.53	1.69	enough cells to score	inactive
Prxl2b (peroxiredoxin like 2B)		1.31	1.61	fewer than 50 cells per well; well left out of scoring	inactive
Cd5 (CD5 antigen)	-0.39	1.43	1.31	enough cells to score	inactive
Tas2r125 (taste receptor, type 2, member 125)	0.41	1.58	1.63	enough cells to score	inactive
Acbd4 (acyl-Coenzyme A binding domain containing 4)	1.48	1.8	1.95	enough cells to score	inactive
Isg20l2 (interferon stimulated exonuclease gene 20-like 2)	-0.13	1.67	1.66	enough cells to score	inactive
Cstl1 (cystatin-like 1)	-0.21	1.56	1.74	enough cells to score	inactive
Tmem266 (transmembrane protein 266)	-0.08	1.53	1.74	enough cells to score	inactive
Tmem220 (transmembrane protein 220)	-0.6	1.4	1.44	enough cells to score	inactive
Gpr84 (G protein-coupled receptor 84)	0.08	1.37	1.74	enough cells to score	inactive
Det1 (DET1 partner of COP1 E3 ubiquitin ligase)		1.39	1.35	fewer than 50 cells per well; well left out of scoring	inactive
Ear1 (eosinophil-associated, ribonuclease A family, member 1)		1.27	1.2	fewer than 50 cells per well; well left out of scoring	inactive
Topors (topoisomerase I binding, arginine/serine-rich)	-0.62	1.42	1.44	enough cells to score	inactive
Suv39h1 (suppressor of variegation 3-9 1)	-1.2	1.37	1.39	enough cells to score	inactive
Ppp1r14c (protein phosphatase 1, regulatory inhibitor subunit 14C)	-0.15	1.48	1.39	enough cells to score	inactive
Or56a3 (olfactory receptor family 56 subfamily A member 3)		1.48	1.26	fewer than 50 cells per well; well left out of scoring	inactive
Azin1 (antizyme inhibitor 1)	-0.31	1.58	1.56	enough cells to score	inactive
Hsh2d (hematopoietic SH2 domain containing)		1.58	1.46	fewer than 50 cells per well; well left out of scoring	inactive
Prl3d2 (prolactin family 3, subfamily d, member 2)	0.59	1.45	1.19	enough cells to score	inactive
Gpr37 (G protein-coupled receptor 37)	0.72	1.6	1.69	enough cells to score	inactive
Nup93 (nucleoporin 93)	0.22	1.86	1.46	enough cells to score	inactive
